Reference: PMC4799364
Results are given in words; binding and its absence hold for the method and conditions named. Binding seen in cells or lysates may run through a third protein. Some entries that bind do so weakly or less than the wild type.

By UniProt entry, the sequences of proteins in these tests, tags left out.
UniProt Q811P8: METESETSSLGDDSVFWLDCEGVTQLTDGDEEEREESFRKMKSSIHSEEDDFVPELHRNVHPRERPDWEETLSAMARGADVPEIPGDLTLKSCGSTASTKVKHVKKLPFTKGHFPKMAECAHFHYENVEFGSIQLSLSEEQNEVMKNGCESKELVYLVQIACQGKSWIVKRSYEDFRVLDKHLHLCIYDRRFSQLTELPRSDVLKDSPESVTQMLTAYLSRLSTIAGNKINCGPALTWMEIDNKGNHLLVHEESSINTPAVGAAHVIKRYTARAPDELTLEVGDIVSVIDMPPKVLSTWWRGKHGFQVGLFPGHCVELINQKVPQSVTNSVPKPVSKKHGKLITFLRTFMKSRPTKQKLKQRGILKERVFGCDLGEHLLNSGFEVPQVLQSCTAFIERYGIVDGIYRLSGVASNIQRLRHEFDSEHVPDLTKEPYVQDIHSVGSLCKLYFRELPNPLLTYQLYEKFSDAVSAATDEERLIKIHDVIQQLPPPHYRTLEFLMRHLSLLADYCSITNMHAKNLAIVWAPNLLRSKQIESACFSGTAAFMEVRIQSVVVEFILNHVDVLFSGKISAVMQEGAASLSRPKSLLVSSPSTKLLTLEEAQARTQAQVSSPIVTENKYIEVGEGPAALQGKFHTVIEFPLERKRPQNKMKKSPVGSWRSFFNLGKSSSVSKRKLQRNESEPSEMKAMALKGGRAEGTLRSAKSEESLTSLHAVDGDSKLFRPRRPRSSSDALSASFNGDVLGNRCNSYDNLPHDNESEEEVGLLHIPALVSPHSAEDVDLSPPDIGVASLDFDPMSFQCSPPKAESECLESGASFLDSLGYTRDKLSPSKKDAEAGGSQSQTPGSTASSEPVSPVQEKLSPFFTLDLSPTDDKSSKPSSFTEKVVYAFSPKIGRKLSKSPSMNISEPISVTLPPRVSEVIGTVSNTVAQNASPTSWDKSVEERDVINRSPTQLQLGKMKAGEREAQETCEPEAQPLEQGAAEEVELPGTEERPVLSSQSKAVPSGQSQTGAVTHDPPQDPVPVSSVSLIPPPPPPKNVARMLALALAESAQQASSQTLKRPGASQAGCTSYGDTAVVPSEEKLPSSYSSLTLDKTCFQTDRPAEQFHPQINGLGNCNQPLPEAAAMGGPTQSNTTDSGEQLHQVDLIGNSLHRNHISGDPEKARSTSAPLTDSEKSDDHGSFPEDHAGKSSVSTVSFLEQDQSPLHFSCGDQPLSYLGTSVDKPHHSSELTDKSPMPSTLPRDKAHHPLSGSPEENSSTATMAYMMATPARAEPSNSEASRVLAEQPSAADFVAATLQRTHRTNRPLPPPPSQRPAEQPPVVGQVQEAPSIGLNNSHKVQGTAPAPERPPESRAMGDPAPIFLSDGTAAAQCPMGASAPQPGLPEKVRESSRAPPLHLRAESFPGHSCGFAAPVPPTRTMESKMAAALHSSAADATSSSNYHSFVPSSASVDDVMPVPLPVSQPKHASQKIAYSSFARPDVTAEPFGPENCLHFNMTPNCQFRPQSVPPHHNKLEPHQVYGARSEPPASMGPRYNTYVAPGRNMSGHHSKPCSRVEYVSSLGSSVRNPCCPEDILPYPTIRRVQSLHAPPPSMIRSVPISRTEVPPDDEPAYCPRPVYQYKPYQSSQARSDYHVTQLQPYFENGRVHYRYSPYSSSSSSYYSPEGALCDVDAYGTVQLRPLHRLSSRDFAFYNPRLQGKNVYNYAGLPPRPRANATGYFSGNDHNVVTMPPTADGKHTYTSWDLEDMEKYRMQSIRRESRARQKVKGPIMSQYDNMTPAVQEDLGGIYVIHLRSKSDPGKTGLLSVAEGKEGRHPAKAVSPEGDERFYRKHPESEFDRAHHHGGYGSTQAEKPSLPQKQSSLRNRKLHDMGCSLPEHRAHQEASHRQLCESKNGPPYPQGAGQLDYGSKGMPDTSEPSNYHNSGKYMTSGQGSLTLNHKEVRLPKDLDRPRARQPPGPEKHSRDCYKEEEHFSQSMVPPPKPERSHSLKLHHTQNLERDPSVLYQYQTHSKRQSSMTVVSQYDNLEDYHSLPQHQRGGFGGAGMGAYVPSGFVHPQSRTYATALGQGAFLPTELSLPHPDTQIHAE
UniProt Q9DCD6: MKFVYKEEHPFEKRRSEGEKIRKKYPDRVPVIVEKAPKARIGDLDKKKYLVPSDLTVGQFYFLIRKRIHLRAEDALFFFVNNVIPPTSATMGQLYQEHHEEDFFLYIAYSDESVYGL
UniProt P63101: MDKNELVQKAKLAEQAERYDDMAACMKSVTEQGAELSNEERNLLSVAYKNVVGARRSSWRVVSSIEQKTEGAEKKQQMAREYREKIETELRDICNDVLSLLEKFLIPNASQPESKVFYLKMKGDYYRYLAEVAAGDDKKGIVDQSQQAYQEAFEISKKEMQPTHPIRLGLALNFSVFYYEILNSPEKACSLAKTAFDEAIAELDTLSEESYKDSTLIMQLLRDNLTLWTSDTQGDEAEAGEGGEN
UniProt O08788: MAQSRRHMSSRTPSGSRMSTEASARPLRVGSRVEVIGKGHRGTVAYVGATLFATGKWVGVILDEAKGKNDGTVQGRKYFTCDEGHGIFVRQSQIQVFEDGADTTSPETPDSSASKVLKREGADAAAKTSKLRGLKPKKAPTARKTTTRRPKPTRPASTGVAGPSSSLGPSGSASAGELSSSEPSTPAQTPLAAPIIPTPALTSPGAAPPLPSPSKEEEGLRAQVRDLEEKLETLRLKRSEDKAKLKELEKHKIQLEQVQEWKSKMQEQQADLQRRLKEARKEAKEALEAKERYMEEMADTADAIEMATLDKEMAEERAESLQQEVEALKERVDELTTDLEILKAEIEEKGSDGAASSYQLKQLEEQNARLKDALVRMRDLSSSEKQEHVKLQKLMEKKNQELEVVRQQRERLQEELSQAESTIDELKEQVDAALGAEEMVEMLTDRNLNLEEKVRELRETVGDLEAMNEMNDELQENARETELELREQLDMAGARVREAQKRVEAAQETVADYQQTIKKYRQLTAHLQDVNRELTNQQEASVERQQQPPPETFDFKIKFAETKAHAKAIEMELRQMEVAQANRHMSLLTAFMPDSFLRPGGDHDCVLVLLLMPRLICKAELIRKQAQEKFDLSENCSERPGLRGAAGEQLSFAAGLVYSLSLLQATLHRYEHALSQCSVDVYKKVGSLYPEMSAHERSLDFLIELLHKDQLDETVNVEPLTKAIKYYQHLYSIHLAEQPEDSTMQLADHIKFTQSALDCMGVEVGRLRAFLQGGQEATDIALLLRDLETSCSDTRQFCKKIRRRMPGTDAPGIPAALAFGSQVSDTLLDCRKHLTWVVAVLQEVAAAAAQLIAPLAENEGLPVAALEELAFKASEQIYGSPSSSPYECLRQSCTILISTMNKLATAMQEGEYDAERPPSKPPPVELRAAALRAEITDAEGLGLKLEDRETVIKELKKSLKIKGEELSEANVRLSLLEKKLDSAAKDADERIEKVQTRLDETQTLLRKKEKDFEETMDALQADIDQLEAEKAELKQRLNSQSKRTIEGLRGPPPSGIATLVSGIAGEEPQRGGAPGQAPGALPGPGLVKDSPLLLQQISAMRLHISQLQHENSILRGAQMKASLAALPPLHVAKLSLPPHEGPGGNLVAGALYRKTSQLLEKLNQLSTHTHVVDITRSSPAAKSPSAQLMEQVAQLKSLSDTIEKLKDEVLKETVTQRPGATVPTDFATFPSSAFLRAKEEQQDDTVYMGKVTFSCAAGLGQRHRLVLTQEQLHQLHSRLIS

T1: γ2 subunit of the γ-aminobutyric acid type A receptor (GABAAR) (mouse (endogenous in mouse cortical neurons)) (UniProt P22723)
T1 sequence: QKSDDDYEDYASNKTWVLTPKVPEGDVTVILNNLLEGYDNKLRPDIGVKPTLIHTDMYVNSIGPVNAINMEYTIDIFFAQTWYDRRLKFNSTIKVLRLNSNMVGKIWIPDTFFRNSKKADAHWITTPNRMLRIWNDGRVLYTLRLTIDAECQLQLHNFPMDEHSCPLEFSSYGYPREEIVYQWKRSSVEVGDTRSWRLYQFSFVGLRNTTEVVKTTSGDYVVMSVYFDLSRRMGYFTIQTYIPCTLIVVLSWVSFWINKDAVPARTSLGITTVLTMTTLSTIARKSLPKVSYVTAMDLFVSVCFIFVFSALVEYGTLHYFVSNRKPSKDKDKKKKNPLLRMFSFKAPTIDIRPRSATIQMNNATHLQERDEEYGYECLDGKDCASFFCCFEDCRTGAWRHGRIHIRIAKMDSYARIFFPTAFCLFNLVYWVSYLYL


Tests used:
[1] = target: T1, γ2 subunit of the γ-aminobutyric acid type A receptor (GABAAR) (mouse (endogenous in mouse cortical neurons)); assay: co-IP; mouse cortical neurons (14 DIV) lysed in lysis buffer T (10 mM Tris-HCl pH 6.8, 140 mM NaCl, 1 mM EDTA, 1% Triton X-100); precleared lysate with 5 ug of the indicated antibody 1 h at 4 °C, protein A-Sepharose; immunoblotting
[2] = target: PX-RICS (ARHGAP32 isoform 1) (mouse (endogenous in mouse cortical neurons)) (UniProt Q811P8); assay: as above
[3] = target: PX-RICS (ARHGAP32 isoform 1) (mouse (endogenous in mouse cortical neurons)) (UniProt Q811P8); assay: co-IP; mouse cortical neurons solubilized with 1% digitonin, linear sucrose density gradient (10-40%) ultracentrifugation; fractions 6, 7 and 8 (>440 kDa) pooled and immunoprecipitated with anti-PX-RICS antibody; immunoblotting

| binding [1] | binding [2] | binding [3] | Molecule |
| --- | --- | --- | --- |
| binds | binds | binds | GABA type A receptor (GABAAR)-associated protein (GABARAP) (from UniProt Q9DCD6 1-117) |
| – | – | binds | 14-3-3ζ (from UniProt P63101 1-245) |
| – | – | binds | dynactin1 (from UniProt O08788 1-1281) |
| – | – | binds | 14-3-3θ (protein, UniProt P68254 1-245) MEKTELIQKAKLAEQAERYDDMATCMKAVTEQGAELSNEERNLLSVAYKNVVGGRRSAWRVISSIEQKTDTSDKKLQLIKDYREKVESELRSICTTVLELLDKYLIANATNPESKVFYLKMKGDYFRYLAEVACGDDRKQTIENSQGAYQEAFDISKKEMQPTHPIRLGLALNFSVFYYEILNNPELACTLAKTAFDEAIAELDTLNEDSYKDSTLIMQLLRDNLTLWTSDSAGEECDAAEGAEN |
